Results deposited as PubChem BioAssay AID743454 (Peter MacCallum Cancer Centre, 2014).
The whole screen tested about 18,000 reagents; below is an unselected part. Of all reagents, 450 (2.5%) got an active call. 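Single biological run; no consistent viability z cut-off exists, so the class columns, not z-scores, define the calls.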

- Purpose: 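Knock-downs lowering viability or raising caspase 3/7 activity in vorinostat-treated resistant cells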 (primary screen)
- Cell system: human HCT116-VR colon cancer cells, selected for vorinostat resistance
- Reagents: siRNA pool against human genes, 40 nM siRNA pool
- Timing: vorinostat for 24 h, read-out about 72 h after transfection
- Challenge: vorinostat at 2.5 µM final
- Read-out: 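Cell viability by CellTiter-Fluor and caspase 3/7 activity by luminescence, each scaled to mock wells per plate, duplicates averaged, then robust z-scored over all plates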
- Scale: viability robust z-score: higher = more viable cells than screen typical; caspase robust z-score: higher = more caspase 3/7 activity than screen typical
- Rule for the call: 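a knock-down is a hit when classed RV1 or RV2 for lowered viability, or CA1 or CA2 for caspase activation; those lethal without drug were dropped; hits were retested singly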

After knock-down of SPRR3, the screen gave viability hit class no change; caspase hit class no change; viability robust z-score 0.2; caspase robust z-score -0.07; inactive.
After knock-down of FEM1B, the record shows viability hit class no change; caspase hit class no change; viability robust z-score 1.79; caspase robust z-score -0.04; inactive.
After knock-down of OR13D1 the results were viability hit class no change; caspase hit class no change; viability robust z-score -0.62; caspase robust z-score -0.34; inactive.
Against RAB15 the deposit lists viability hit class no change; caspase hit class no change; viability robust z-score 0.6; caspase robust z-score 0.53; inactive.
TWIST2 gave viability hit class no change; caspase hit class no change; viability robust z-score -0.24; caspase robust z-score 1.58; inactive.
Against OOEP, the values are viability hit class no change; caspase hit class no change; viability robust z-score 0.75; caspase robust z-score 0.95; inactive.
ACSS1 scored viability hit class no change; caspase hit class no change; viability robust z-score -0.85; caspase robust z-score -0.99; inactive.

Ordered by “caspase robust z-score” (low to high): 2 of the entries above.
OR13D1: viability hit class = no change; caspase hit class = no change; viability robust z-score = -0.62; caspase robust z-score = -0.34; Call = inactive
RAB15: viability hit class = no change; caspase hit class = no change; viability robust z-score = 0.6; caspase robust z-score = 0.53; Call = inactive

The results go on.
Against HOGA1 the deposit lists viability hit class no change; caspase hit class no change; viability robust z-score -1.52; caspase robust z-score 2.06; inactive.
MPC1 scored viability hit class no change; caspase hit class no change; viability robust z-score -0.56; caspase robust z-score -0.13; inactive.
With knock-down of KLHL6, the record shows viability hit class no change; caspase hit class no change; viability robust z-score 1.51; caspase robust z-score -0.18; inactive.
Knock-down of B4GALT3 came out at: viability hit class no change; caspase hit class no change; viability robust z-score 0.14; caspase robust z-score 0.84; inactive.
INSL3 showed viability hit class no change; caspase hit class no change; viability robust z-score 0.56; caspase robust z-score 0.24; inactive.
After knock-down of KCNK12 the results were viability hit class no change; caspase hit class no change; viability robust z-score -0.08; caspase robust z-score 1.35; inactive.
After knock-down of PRMT9 the results were viability hit class no change; caspase hit class no change; viability robust z-score -0.64; caspase robust z-score 0.22; inactive.
Silencing of SLC61A1 resulted in: viability hit class no change; caspase hit class no change; viability robust z-score 0.12; caspase robust z-score 3.38; inactive.
With knock-down of RFWD3, the screen gave viability hit class no change; caspase hit class no change; viability robust z-score -2.79; caspase robust z-score 2.77; inactive.
LUC7L2 gave viability hit class no change; caspase hit class no change; viability robust z-score -0.2; caspase robust z-score -0.64; inactive.
Against GPR176, the entry reads viability hit class no change; caspase hit class no change; viability robust z-score 0.17; caspase robust z-score -0.05; inactive.
With knock-down of LINC03124 the results were viability hit class no change; caspase hit class no change; viability robust z-score -1.56; caspase robust z-score 0.94; inactive.
Against PEX3, the entry reads viability hit class no change; caspase hit class no change; viability robust z-score -0.16; caspase robust z-score 0.32; inactive.
Depletion of SLC2A8 resulted in: viability hit class no change; caspase hit class no change; viability robust z-score 0.37; caspase robust z-score -0.22; inactive.
